# Results from the supplement of paper PMC8728848.
# The list shows a part of the results.
# B1: PX15642A-pgi-501-20-501 (Parabacteroides gingivalis) (protein)
# chain: CELDRDPEGKDFQQPYTSFVQTKQNRDGLYALLRNTENPRMHFYQELQSDMYCTTITDGNSLAPFVNWDLGILNDHGRADEDEVSGIAGYYFVYNRLNQQANAFVNNTEAALQNQVYKNSTEIANAKSFLAEGKVLQALAIWRLMDRFSFHESVTEVNSGAKDLGVILLKEYNPGYIGPRATKAQCYDYILSRLSEAIEVLPENRESVLYVSRDYAYALRARIYLALGEYGKAAADAKMVVDKYPLIGAADASEFENIYRSDANNPEIIFRGFASATLGSFTATTLNGAAPAGKDIKYNPSAVPFQWVVDLYENEDFRKSVYIAKVVKKDKGYLVNKFLEDKAYRDVQDKPNLKVGARYFSVAEVYLILVESALQTGDTPTAEKYLKALSKARGAEVSVVNMEALQAERTRELIGEGSRLRDMVRWSIPNNHDAFETQPGLEGFANTTPLKAQAPVGFYAYTWEFPQRDRQTNPQLIKNWPI
# Assays:
# Assay in all cases: glycan array binding signal (z-score within array); higher = stronger binding
# Settings in all cases: glycan notation: IUPAC condensed, linker removed
# Fuc(a1-2)Gal = molecular target: Fuc(a1-2)Gal
# How it was run: (§1)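 The binding signal is a Z-score computed within each array and averaged over linkers. Arrays of the same protein sequence at different concentrations or buffers were also averaged together. Data originate from 3228 arrays in the Consortium for Functional Glycomics database, kept only where the protein sequence was available.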
# Fuc(a1-2)Gal(b1-3)GalNAc = molecular target: Fuc(a1-2)Gal(b1-3)GalNAc
# How it was run: as §1
# [1] = molecular target: Fuc(a1-2)Gal(b1-3)GalNAc(a1-3)[Fuc(a1-2)]Gal(b1-4)Glc
# How it was run: as §1
# [2] = molecular target: Fuc(a1-2)Gal(b1-3)GalNAc(a1-3)[Fuc(a1-2)]Gal(b1-4)GlcNAc
# How it was run: as §1
# [3] = molecular target: Fuc(a1-2)Gal(b1-3)GalNAc(b1-3)Gal
# How it was run: as §1
# [4] = molecular target: Fuc(a1-2)Gal(b1-3)GalNAc(b1-3)Gal(a1-4)Gal(b1-4)Glc
# How it was run: as §1
# [5] = molecular target: Fuc(a1-2)Gal(b1-3)GalNAc(b1-4)[Neu5Ac(a2-3)]Gal(b1-4)Glc
# How it was run: as §1
# Fuc(a1-2)Gal(b1-3)GlcNAc = molecular target: Fuc(a1-2)Gal(b1-3)GlcNAc
# How it was run: as §1
# [6] = molecular target: Fuc(a1-2)Gal(b1-3)GlcNAc(b1-2)Man(a1-3)[Fuc(a1-2)Gal(b1-3)GlcNAc(b1-2)Man(a1-6)]Man(b1-4)GlcNAc(b1-4)GlcNAc
# How it was run: as §1
# [7] = molecular target: Fuc(a1-2)Gal(b1-3)GlcNAc(b1-2)Man(a1-3)[Fuc(a1-2)Gal(b1-3)GlcNAc(b1-2)Man(a1-6)]Man(b1-4)GlcNAc(b1-4)[Fuc(a1-6)]GlcNAc
# How it was run: as §1
# [8] = molecular target: Fuc(a1-2)Gal(b1-3)GlcNAc(b1-3)Gal(b1-4)Glc
# How it was run: as §1
# [9] = molecular target: Fuc(a1-2)Gal(b1-3)GlcNAc(b1-3)GalNAc
# How it was run: as §1
# [10] = molecular target: Fuc(a1-2)Gal(b1-3)GlcNAc(b1-3)[Fuc(a1-2)Gal(b1-3)GlcNAc(b1-6)]GalNAc
# How it was run: as §1
# [11] = molecular target: Fuc(a1-2)Gal(b1-3)GlcNAc(b1-3)[Gal(b1-4)GlcNAc(b1-6)]Gal(b1-4)Glc
# How it was run: as §1
# [12] = molecular target: Fuc(a1-2)Gal(b1-3)GlcNAc(b1-3)[Neu5Ac(a2-6)Gal(b1-4)GlcNAc(b1-6)]Gal(b1-4)Glc
# How it was run: as §1
# [13] = molecular target: Fuc(a1-2)Gal(b1-3)GlcNAc6S
# How it was run: as §1
# [14] = molecular target: Fuc(a1-2)Gal(b1-3)[Fuc(a1-4)]GlcNAc
# How it was run: as §1
# [15] = molecular target: Fuc(a1-2)Gal(b1-3)[Fuc(a1-4)]GlcNAc(b1-2)Man(a1-3)[Fuc(a1-2)Gal(b1-3)[Fuc(a1-4)]GlcNAc(b1-2)Man(a1-3)]Man(b1-4)GlcNAc(b1-4)GlcNAc
# How it was run: as §1
# [16] = molecular target: Fuc(a1-2)Gal(b1-3)[Fuc(a1-4)]GlcNAc(b1-2)Man(a1-3)[Fuc(a1-2)Gal(b1-3)[Fuc(a1-4)]GlcNAc(b1-2)Man(a1-6)]Man(b1-4)GlcNAc(b1-4)[Fuc(a1-6)]GlcNAc(b1-4)[Fuc(a1-6)]GlcNAc
# How it was run: as §1
# [17] = molecular target: Fuc(a1-2)Gal(b1-3)[Fuc(a1-4)]GlcNAc(b1-3)[Fuc(a1-3)[Gal(b1-4)]GlcNAc(b1-6)]Gal(b1-4)Glc
# How it was run: as §1
# [18] = molecular target: Fuc(a1-2)Gal(b1-3)[Fuc(a1-4)]GlcNAc(b1-3)[Gal(b1-4)GlcNAc(b1-6)]Gal(b1-4)Glc
# How it was run: as §1
# Fuc(a1-2)Gal(b1-4)Glc = molecular target: Fuc(a1-2)Gal(b1-4)Glc
# How it was run: as §1
# Fuc(a1-2)Gal(b1-4)Glc6S = molecular target: Fuc(a1-2)Gal(b1-4)Glc6S
# How it was run: as §1
# Fuc(a1-2)Gal(b1-4)GlcNAc = molecular target: Fuc(a1-2)Gal(b1-4)GlcNAc
# How it was run: as §1
# [19] = molecular target: Fuc(a1-2)Gal(b1-4)GlcNAc(b1-2)Man
# How it was run: as §1
# [20] = molecular target: Fuc(a1-2)Gal(b1-4)GlcNAc(b1-2)Man(a1-3)[Fuc(a1-2)Gal(b1-4)GlcNAc(b1-2)Man(a1-6)]Man(b1-4)GlcNAc(b1-4)GlcNAc
# How it was run: as §1
# [21] = molecular target: Fuc(a1-2)Gal(b1-4)GlcNAc(b1-2)Man(a1-3)[Fuc(a1-2)Gal(b1-4)GlcNAc(b1-2)Man(a1-6)]Man(b1-4)GlcNAc(b1-4)[Fuc(a1-6)]GlcNAc
# How it was run: as §1
# [22] = molecular target: Fuc(a1-2)Gal(b1-4)GlcNAc(b1-2)[Fuc(a1-2)Gal(b1-4)GlcNAc(b1-4)]Man(a1-3)[Fuc(a1-2)Gal(b1-4)GlcNAc(b1-2)Man(a1-6)]Man(b1-4)GlcNAc(b1-4)GlcNAc
# How it was run: as §1
# [23] = molecular target: Fuc(a1-2)Gal(b1-4)GlcNAc(b1-3)Gal(b1-4)GlcNAc
# How it was run: as §1
# [24] = molecular target: Fuc(a1-2)Gal(b1-4)GlcNAc(b1-3)Gal(b1-4)GlcNAc(b1-2)Man(a1-3)[Fuc(a1-2)Gal(b1-4)GlcNAc(b1-3)Gal(b1-4)GlcNAc(b1-2)Man(a1-6)]Man(b1-4)GlcNAc(b1-4)GlcNAc
# How it was run: as §1
binder,measurement,setting,value
B1,glycan array binding signal (z-score),Fuc(a1-2)Gal,0.132
same,glycan array binding signal (z-score),Fuc(a1-2)Gal(b1-3)GalNAc,-0.589
same,glycan array binding signal (z-score),[1],0.033
same,glycan array binding signal (z-score),[2],-0.192
same,glycan array binding signal (z-score),[3],-0.344
same,glycan array binding signal (z-score),[4],-0.595
same,glycan array binding signal (z-score),[5],-0.631
same,glycan array binding signal (z-score),Fuc(a1-2)Gal(b1-3)GlcNAc,-0.306
same,glycan array binding signal (z-score),[6],0.643
same,glycan array binding signal (z-score),[7],0.224
same,glycan array binding signal (z-score),[8],-0.086
same,glycan array binding signal (z-score),[9],-0.094
same,glycan array binding signal (z-score),[10],0.332
same,glycan array binding signal (z-score),[11],-0.21
same,glycan array binding signal (z-score),[12],-0.121
same,glycan array binding signal (z-score),[13],-0.42
same,glycan array binding signal (z-score),[14],-0.54
same,glycan array binding signal (z-score),[15],-0.615
same,glycan array binding signal (z-score),[16],-0.068
same,glycan array binding signal (z-score),[17],0.146
same,glycan array binding signal (z-score),[18],-0.626
same,glycan array binding signal (z-score),Fuc(a1-2)Gal(b1-4)Glc,0.62
same,glycan array binding signal (z-score),Fuc(a1-2)Gal(b1-4)Glc6S,0.505
same,glycan array binding signal (z-score),Fuc(a1-2)Gal(b1-4)GlcNAc,0.154
same,glycan array binding signal (z-score),[19],-0.843
same,glycan array binding signal (z-score),[20],0.234
same,glycan array binding signal (z-score),[21],-0.142
same,glycan array binding signal (z-score),[22],-0.022
same,glycan array binding signal (z-score),[23],0.038
same,glycan array binding signal (z-score),[24],-0.056

# Part of the list above, with bars between the fields.
binder | measurement | setting | value
B1 | glycan array binding signal (z-score) | [1] | 0.033
same | glycan array binding signal (z-score) | [15] | -0.615
